Measurements as given in PubChem BioAssay AID2551 (National Center for Advancing Translational Sciences (NCATS), 2010).
Among all 310,000 compounds or so, about 17,000 (5.5%) were called active. Inconclusive means that the source gave no clear call. Such entries were picked first, then a sample of the others. Calls come from the whole dose curve; as a rule, active = well fitted inhibition curve with a large enough effect; inconclusive = small, poorly fitted or top-dose-only effect, or effect the other way; inactive = no such curve, though single readings can be large or run the other way. Potencies beside an inconclusive call are fits to weak or partial responses and may not hold up.

By UniProt entry, the sequences of proteins in these tests, tags left out. Where a name states a change or a piece, a line headed by the entry shows the natural chain unless it says otherwise.
UniProt P51450: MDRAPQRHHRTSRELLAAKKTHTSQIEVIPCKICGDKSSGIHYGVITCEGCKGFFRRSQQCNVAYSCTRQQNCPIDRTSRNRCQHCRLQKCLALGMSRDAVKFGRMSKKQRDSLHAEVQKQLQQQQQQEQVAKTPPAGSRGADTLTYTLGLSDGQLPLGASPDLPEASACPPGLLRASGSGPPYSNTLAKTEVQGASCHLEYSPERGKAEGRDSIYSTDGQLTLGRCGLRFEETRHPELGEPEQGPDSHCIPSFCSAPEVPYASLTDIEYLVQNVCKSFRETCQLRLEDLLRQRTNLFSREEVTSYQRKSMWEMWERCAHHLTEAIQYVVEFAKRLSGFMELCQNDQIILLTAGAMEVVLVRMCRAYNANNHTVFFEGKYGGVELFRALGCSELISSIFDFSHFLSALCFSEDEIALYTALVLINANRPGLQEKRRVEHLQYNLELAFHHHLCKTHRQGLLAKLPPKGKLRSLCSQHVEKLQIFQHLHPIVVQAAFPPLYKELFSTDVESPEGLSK

Target: Nuclear receptor ROR-gamma (Mus musculus) (UniProt P51450)
Test: qHTS for inhibitors of ROR gamma transcriptional activity; note: nearly all actives have a fitted effect of over 60% in size
Conditions: Drosophila S2 Gal4-RORgamma UAS-luciferase reporter, 20 h; series mostly up to 53.6 µM
In short: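 Luminescence from a UAS-regulated Photinus luciferase reporter in stably transfected Drosophila Schneider cells is measured; decreased signal marks ROR gamma inhibition. Fusion expression is induced by 700 uM copper sulfate for 20 hr.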
Potency is the fitted concentration of half-maximal effect.

Potency, active:
CCC(C)Nc1nc(-c2ccccn2)nc2ccccc12 (configuration not stated) 0.708 µM
S=C(NCCCCc1ccccc1)NCc1ccccc1 15.8 µM
O=C(N/N=C/c1cc(Br)cs1)c1ccccc1[N+](=O)[O-] 5.62 µM
CNC(=O)c1cc2c(=O)n3cc(C)ccc3nc2n(Cc2ccco2)c1=N 11.2 µM
S=C(NCCc1ccccc1)NCc1ccccc1Cl 7.94 µM
CC(=O)N/N=C(\C)c1ccc(Br)cc1Br 10 µM
O=[N+]([O-])c1ccc(O)c(/C=N/Nc2ccc(Cl)nn2)c1 1 µM
Cc1c(Cl)cccc1NC(=S)NNS(=O)(=O)c1ccc([N+](=O)[O-])cc1 4.47 µM
COc1cccc(CS(=O)(=O)c2nnnn2-c2ccccc2)c1 7.08 µM
Cc1cc(NC(=O)c2ccccc2F)n(-c2nc3ccccc3[nH]2)n1 1.12 µM
Nc1c(C(=O)Nc2ccccc2)c2nc3ccccc3nc2n1CCCN1CCOCC1 11.2 µM

Gathered by group: those above containing bromine.
Potency, active:
O=C(N/N=C/c1cc(Br)cs1)c1ccccc1[N+](=O)[O-] 5.62 µM
CC(=O)N/N=C(\C)c1ccc(Br)cc1Br 10 µM

Following part.

Potency, inconclusive:
CCOC(=O)c1c(NC(=S)NC(=O)c2ccc(Cn3cc(Cl)cn3)o2)sc2c1CCCCC2 8.91 µM [inhibitor, partial curve, poor fit]
O=C(Cn1ncc(N2CCCC2)c(Cl)c1=O)c1ccc(Cl)cc1 15.8 µM [activator, single point]
COc1c(O)c(O)cc2c1oc1c3ccccc3oc(=O)c21 20 µM [inhibitor, partial curve, poor fit]
CCN(C(=O)CCN1C(=O)/C(=C/c2ccccc2)SC1=S)C1CCS(=O)(=O)C1 (configuration not stated) 12.6 µM [inhibitor, single point]
CC(=O)c1cc2c(cc1NC(=O)CSc1nc3ccc(C)cc3[nH]1)OCO2 2.51 µM [activator, partial curve]
COc1ccccc1C(=O)NCCC(=O)Nc1ccc(C)cn1 2.51 µM [inhibitor, partial curve, poor fit]
O=C1CCC/C(=N\NC(=O)c2ccc(COc3ccccc3-c3ccccc3)cc2)C1 7.94 µM [inhibitor, partial curve]
CCOC(=O)c1sc(N/N=C/c2ccccc2)nc1C 17.8 µM [inhibitor, single point]
O=C(CN1CCN(S(=O)(=O)c2ccc(F)cc2)CC1)Nc1cc(C(F)(F)F)ccc1Cl 10 µM [activator, partial curve]
CC(=O)Nc1ccccc1NC(=O)C/C(C)=N/NC(=O)c1ccc([N+](=O)[O-])c(Cl)c1 35.5 µM [inhibitor, single point]
COc1ccccc1NC(=O)CSc1ccc2nnc(-c3cccnc3)n2n1 35.5 µM [activator, partial curve, poor fit]
Cc1ccccc1OCC(O)CN(Cc1ccccc1O)C1CCCCC1 (configuration not stated) 1.12 µM [inhibitor, partial curve, poor fit]
COC(=O)C1=C(C)Nc2c(c(=O)n(C)c(=O)n2C)C1c1cccs1 (configuration not stated) 3.55 µM [inhibitor, full curve, poor fit]
COCCn1c(=S)[nH]c2cc(C(=O)N3CCCC(C)C3)ccc2c1=O (configuration not stated) 17.8 µM [inhibitor, single point]
O=C(c1ccc(C(F)(F)F)cc1)C1CCCN(C(=O)CCc2ccncc2)C1 (configuration not stated) 0.631 µM [inhibitor, full curve, poor fit]
CC(Oc1ccc(Cl)cc1Cl)c1nc(-c2ccc(NC(=O)c3cccnc3)cc2)no1 (configuration not stated) 35.5 µM [inhibitor, single point]
Cc1cccc(C)c1NC(=O)/C(=C/c1ccco1)c1ccccc1 15.8 µM [inhibitor, partial curve, poor fit]
O=C(NN=C1CCN(Cc2ccccc2)CC1)c1cccc(S(=O)(=O)Nc2ccccc2Cl)c1 20 µM [inhibitor, single point]
Cc1ccc2c(Cl)cc(Cl)c(OCC(=O)NCCc3ccccn3)c2n1 11.2 µM [inhibitor, partial curve, poor fit]
Cc1ccc(S(=O)(=O)N2CCN(c3ccc(C(F)(F)F)cc3[N+](=O)[O-])CC2)cc1 7.08 µM [activator, partial curve]
COc1cc(/C=N/n2cnnc2)ccc1Oc1nc(Cl)ncc1F 6.31 µM [inhibitor, single point]
O=C(CCCCCn1c(=S)[nH]c2ccccc2c1=O)NCc1ccc2c(c1)OCO2 20 µM [inhibitor, single point]
[O-]/C(=C(\C(=S)NCc1ccccc1)[n+]1ccccc1)c1ccc(Cl)cc1 0.891 µM [inhibitor, full curve]
COc1ccc(-n2ncc3c2CC(C)(C)CC3NC(=O)c2ccoc2C)cc1 (configuration not stated) 15.8 µM [activator, single point]
CCc1ccc(CCC(=O)Nc2ccc(Cl)cc2)o1 22.4 µM [activator, single point]
CC(C(=O)Nc1ccccc1-c1ccccc1)N1CCN(C(=O)c2ccccc2)CC1 (configuration not stated) 14.1 µM [activator, single point]
CC12CCC(C(=O)NC3CCCC3)(CC1=O)C2(C)C (configuration not stated) 2.24 µM [inhibitor, full curve]
S=c1[nH]nc(-c2cc(-c3ccccc3)n[nH]2)n1/N=C/C=C/c1ccco1 2.24 µM [inhibitor, full curve]
COC(=O)Cn1c(=NC(=O)c2nc3ccccc3s2)sc2cc(S(N)(=O)=O)ccc21 35.5 µM [inhibitor, single point]
COc1ccc(S(=O)(=O)Nc2cccc(SC)c2)cc1OC 12.6 µM [activator, partial curve]
C=CCNc1nc(Nc2ccc(Cl)cc2)nc(OC)n1 15.8 µM [inhibitor, single point]
COc1cc(C2C(C#N)=C(N)Oc3n[nH]c(-c4ccccn4)c32)cc(OC)c1OC (configuration not stated) 22.4 µM [inhibitor, single point]
Cc1nc(NC(=O)COc2ccccc2)sc1C(=O)Nc1cccc(Cl)c1 7.08 µM [activator, partial curve]
CO/N=C/c1ccc(N2CCN(C(=O)c3ccc(Cl)cc3Cl)CC2)c([N+](=O)[O-])c1 35.5 µM [inhibitor, single point]
COC(=O)C1=C(C)NC2=C(C(=O)CC(C)(C)C2)C1c1cn(Cc2ccc(Br)cc2)nc1-c1ccccc1 (configuration not stated) 20 µM [activator, partial curve, poor fit]

Some of these compounds in order of number of heavy atoms, falling.
Potency, inconclusive:
Cc1ccc(S(=O)(=O)N2CCN(c3ccc(C(F)(F)F)cc3[N+](=O)[O-])CC2)cc1 7.08 µM [activator, partial curve]
COc1cc(/C=N/n2cnnc2)ccc1Oc1nc(Cl)ncc1F 6.31 µM [inhibitor, single point]
COc1ccccc1C(=O)NCCC(=O)Nc1ccc(C)cn1 2.51 µM [inhibitor, partial curve, poor fit]

Next part:

Potency, inactive:
COc1ccc(C2=NN(C(=O)c3cccs3)C(c3ccc(OC)cc3)C2)cc1 (configuration not stated)
Cc1ccc(S(=O)(=O)NN2C(=O)c3ccccc3NC2c2ccccn2)cc1 (configuration not stated)
C=CCn1c(SCCCc2ccccc2)nc2c1c(=O)[nH]c(=O)n2C
O=C(CCNC(=O)c1ccccc1Cl)NCCc1ccc(Cl)cc1
CCc1nnc(NC(=O)C2CCN(C(=O)c3ccco3)CC2)s1
CSc1nnc2c3ccccc3c3ccccc3c2n1
CC(C)(C)c1nc(SCC(=O)NNC(=O)c2ccccc2)c2ccccc2n1
O=C(NC1CCSc2ccccc21)c1c(F)cccc1Cl (configuration not stated)
Cc1c(C(=O)N2CCCCC2)c(S(=O)(=O)Nc2ccc(F)cc2F)c(C)n1C
Cc1cc(C)nc(NC(=O)c2ccc(Cl)c([N+](=O)[O-])c2)n1
Cc1cc(OCC(=O)Nc2ccc(Br)cc2)cc2c1C(=O)CC(C)(C)O2
O=c1cn[nH]c2ccccc12
COc1cc(NC(=O)c2ccccc2)c(OC)cc1NC(=O)CN1CCN(c2ccccn2)CC1
OC(CN1CCN(c2ccccc2)CC1)Cn1c2ccccc2c2ccccc21 (configuration not stated)
CN(C)CCNc1ncnc2c1sc1nc(N3CCOCC3)c3c(c12)CC(C)(C)SC3
COC(=O)C1(Cc2ccccc2)C=C2C(=C(c3ccccc3)C(=O)C2C)CN1 (configuration not stated)
COc1ccc(-c2noc(-c3cccc(OC)c3OC)n2)cc1OC
COc1ccccc1OCC(=O)NC1CC(C)(C)NC(C)(C)C1
COc1cccc(CC(NC(C)=O)C(=O)NC2CCN(C(=O)c3ccncc3)CC2)c1OC (configuration not stated)
O=c1onc(-c2ccc(Cl)cc2)n1Cc1ccc(F)cc1
COC(=O)CCC(=O)OC1(C)C(=O)C=C2C=C(C3CC3)N(Cc3ccc(OC)cc3)C=C2C1=O (configuration not stated)
CC1(C(=O)NCc2ccc(Cl)c(Cl)c2)Oc2cccnc2NC1=O (configuration not stated)
Cc1ccc2nc(SCC(=O)N(CC(C)C)c3c(N)n(Cc4ccccc4)c(=O)[nH]c3=O)[nH]c2c1
O=C1CN2NC(=S)N(c3ccccc3)C2=CN1c1ccc(Cl)cc1
CCCNC(=O)c1ccccc1NC(=O)c1ccccc1N(C)S(=O)(=O)c1ccc(C)cc1
CN1CCN(c2ccccc2/C=C2/C(=O)Nc3ccccc32)CC1
CNc1ccnc(-c2ccccc2C)n1
Cc1cc(OCC(=O)NCCCN2CCOCC2)c2c(C)cc(=O)oc2c1
Fc1ccc(/C=N\Nc2cccc(F)c2)cc1
Cc1ccc(NC(=O)C2CCCN(c3ncccn3)C2)cc1F (configuration not stated)
CCOc1ccc(C(=O)Nc2ccccc2N2CCOCC2)cc1

3 records picked at random from the list so far, as already listed:
Potency, inactive:
CC(C)(C)c1nc(SCC(=O)NNC(=O)c2ccccc2)c2ccccc2n1
Cc1cc(OCC(=O)Nc2ccc(Br)cc2)cc2c1C(=O)CC(C)(C)O2
O=C(NC1CCSc2ccccc21)c1c(F)cccc1Cl (configuration not stated)
